PubChem BioAssay AID1259405 | NCATS | 2018
Shown is an unselected part of about 50,000 reagents. Of all reagents, about 4,000 (8%) got an active call. 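Mouse siRNA library applied to hamster cells; one well for each siRNA.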 A number with no mark means an inactive call.

- Aim: 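Knock-downs that lift recombinant protein yield in hamster ovary cells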 (primary screen)
- Cell system: Chinese hamster CHO-K1 ovary cells with stable secreted eGFP expression
- Reagents: single siRNA against mouse genes, 0.8 pmol siRNA per well (2 µl of 400 nM stock)
- Time to read-out: 3 days
- Detection: 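Per-well intracellular GFP measured by laser scanning cytometry, plus viability from ATP luminescence, each relative to plate median of non-targeting control wells, in %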
- Reading the numbers: GFP, % of control: higher = more GFP per well, higher productivity; viability (ATP), % of control: higher = more viable cells (more ATP)
- Call rule: 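Called active when intracellular GFP, relative to negative control, is at or above 120%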

| gene symbol | PubChem SID | GFP, % of control | viability (ATP), % of control |
| --- | --- | --- | --- |
| Pwp2 | SID363555112 | 40.3 | 52.7 |
| Pwp2 | SID363568559 | 13.3 | 34.4 |
| Pwp2 | SID363586618 | 66.4 | 72.9 |
| Smn1 | SID363568976 | 85.7 | 105 |
| Smn1 | SID363583408 | 29.2 | 81.1 |
| Ca1 | SID363569294 | 79 | 85 |
| Ca1 | SID363583726 | 63.6 | 54.7 |
| Timm8a2 | SID363547796 | 83.1 | 96.6 |
| Timm8a2 | SID363558565 | 164 (active) | 72.5 |
| Timm8a2 | SID363560323 | 106 | 104 |
| Derl2 | SID363544240 | 59.2 | 47 |
| Derl2 | SID363550568 | 68.4 | 69.6 |
| Derl2 | SID363557117 | 87.8 | 83.9 |
| Frat1 | SID363539891 | 67.6 | 76.4 |
| Frat1 | SID363561192 | 90.4 | 82.7 |
| Frat1 | SID363564228 | 84.9 | 87.5 |
| Sirt1 | SID363584524 | 80.5 | 85.1 |
| Sirt1 | SID363589554 | 55.2 | 75.9 |
| Xpnpep3 | SID363547358 | 117 | 79 |
| Xpnpep3 | SID363558127 | 75.4 | 50.5 |
| Xpnpep3 | SID363559885 | 95.5 | 57.8 |

Already shown: entries from further up.
| gene symbol | PubChem SID | GFP, % of control | viability (ATP), % of control |
| --- | --- | --- | --- |
| Frat1 | SID363564228 | 84.9 | 87.5 |
| Sirt1 | SID363584524 | 80.5 | 85.1 |
| Sirt1 | SID363589554 | 55.2 | 75.9 |
| Xpnpep3 | SID363547358 | 117 | 79 |
| Xpnpep3 | SID363558127 | 75.4 | 50.5 |

Further records:
| gene symbol | PubChem SID | GFP, % of control | viability (ATP), % of control |
| --- | --- | --- | --- |
| Mrgpra5 | SID363544081 | 21.7 | 45.2 |
| Mrgpra5 | SID363550409 | 65.9 | 62.9 |
| Mrgpra5 | SID363556958 | 104 | 70.9 |
| Sf3a3 | SID363569227 | 113 | 103 |
| Sf3a3 | SID363583659 | 118 | 85.4 |
| Cdc50b | SID363556367 | 85.6 | 78.7 |
| Cdc50b | SID363586817 | 60.6 | 93.9 |
| Cdc50b | SID363588925 | 23.6 | 117 |
| Wnt6 | SID363541679 | 105 | 77.2 |
| Wnt6 | SID363553271 | 100 | 90.2 |
| Wnt6 | SID363566595 | 53.2 | 43.2 |
| Pex1 | SID363581711 | 107 | 90.6 |
| Pex1 | SID363589205 | 87.2 | 72.4 |
